Data set [1] addresses T1, C179DDD S893D,T894D,T898D (Homo sapiens) (UniProt Q9ULV3).
T1 sequence (looked up, limits assumed): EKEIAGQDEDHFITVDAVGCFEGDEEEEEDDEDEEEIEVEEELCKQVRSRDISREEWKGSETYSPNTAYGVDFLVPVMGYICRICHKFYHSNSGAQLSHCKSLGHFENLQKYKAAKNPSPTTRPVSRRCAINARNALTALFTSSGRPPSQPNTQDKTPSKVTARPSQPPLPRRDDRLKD
Description: EMSA. To be noted: 0.66 nM RNA, yeast tRNA 0.1 mg/ml; 10 mM Tris-HCl pH 7, 30 mM NaCl, 2.5 mM MgCl2, 0.1% IGEPAL CA-630, 0.1 mg/ml yeast tRNA, 1.5% RNaseOUT, 0.2 mM EDTA, 0.2 mM DTT, 30 C 20 min; 0.8% agarose/TBE at 4 C; recombinant protein; protein details: N-terminal GST removed with PreScission protease; label: digoxigenin (DIG-11-UTP, internal); probe letters rebuilt from the primers and the genome.

In data set [2] the target is T2, C179Δtail del861-898 (Homo sapiens) (UniProt Q9ULV3).
T2 sequence (looked up): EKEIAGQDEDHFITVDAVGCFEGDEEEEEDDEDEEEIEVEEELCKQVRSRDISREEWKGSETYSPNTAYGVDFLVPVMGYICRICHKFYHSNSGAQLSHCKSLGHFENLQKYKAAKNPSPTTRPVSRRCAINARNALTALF
Put plainly: EMSA. To be noted: 0.66 nM RNA, yeast tRNA 0.1 mg/ml; 10 mM Tris-HCl pH 7, 30 mM NaCl, 2.5 mM MgCl2, 0.1% IGEPAL CA-630, 0.1 mg/ml yeast tRNA, 1.5% RNaseOUT, 0.2 mM EDTA, 0.2 mM DTT, 30 C 20 min; 0.8% agarose/TBE at 4 C; recombinant protein; residues 720-860; protein details: N-terminal GST removed with PreScission protease; label: digoxigenin (DIG-11-UTP, internal); probe letters rebuilt from the primers and the genome; counted as no binding.

Tags and fusion partners may be left off the protein sequences shown.

Take “GGGAGCACUAGCUAUGGCUCUCUGUUUUAUCUAUCUGGUUGCUAUUUCUCUUAGCUUUUCUUUCACUCCUGCCUUUCGUGACUCCCCUUUGGGUCACAUGUUGCAUGCAUCCCUCUCUUUUUCUUGUGCUCACCCCACUUGUUCUUUGUUCAAGUUCUCUUUGUCAGUCCAUUUCAGUUUUCUUUCUGCUGCUUCUAUCCUUAGUGAAUUCUUGUUUACAUUUCUUCCCUGCCUUUCUUGGGCCACUUUCUCUGUUUUCUUUUGUAUUUGUGUCUCUUUGCUAUUGGUGGAUUUCUUAUCUCAGCAUCAUUCUGUUGCUUUGUGUUUGCUUGUGUUUCUAUCUUCUACUUUCCUCCUUUCUGUUCACUUUGAGCAUUUCAUCUCUUUACAAGUCUGUGUCUCUCUUGUAUUCUAAAGUAAUCCUUUCUUGGAUGUUUCUUUGUAUGUACAUGUGCGUGUGUGCAUGUGUGUUAUGUG [Xist repeat E RNA probe]”: the binding signal (% probe shifted at 5 µM protein) in data set [1] is 54; in data set [2] it was 2.

These data come from article PMC12862363, “AURKB-driven dissolution of CIZ1–RNA assemblies from the inactive X chromosome in mitosis” (Nucleic Acids Research, 2026).
